From publication PMC11302878
These are yes or no findings as the source states them, for the method shown. Binding seen in cells or lysates may run through a third protein. Some entries that bind do so weakly or less than the wild type.

Sequences of proteins named here, by UniProt entry; tags and fusion partners are left off. Residues count along the entry.
UniProt P35222: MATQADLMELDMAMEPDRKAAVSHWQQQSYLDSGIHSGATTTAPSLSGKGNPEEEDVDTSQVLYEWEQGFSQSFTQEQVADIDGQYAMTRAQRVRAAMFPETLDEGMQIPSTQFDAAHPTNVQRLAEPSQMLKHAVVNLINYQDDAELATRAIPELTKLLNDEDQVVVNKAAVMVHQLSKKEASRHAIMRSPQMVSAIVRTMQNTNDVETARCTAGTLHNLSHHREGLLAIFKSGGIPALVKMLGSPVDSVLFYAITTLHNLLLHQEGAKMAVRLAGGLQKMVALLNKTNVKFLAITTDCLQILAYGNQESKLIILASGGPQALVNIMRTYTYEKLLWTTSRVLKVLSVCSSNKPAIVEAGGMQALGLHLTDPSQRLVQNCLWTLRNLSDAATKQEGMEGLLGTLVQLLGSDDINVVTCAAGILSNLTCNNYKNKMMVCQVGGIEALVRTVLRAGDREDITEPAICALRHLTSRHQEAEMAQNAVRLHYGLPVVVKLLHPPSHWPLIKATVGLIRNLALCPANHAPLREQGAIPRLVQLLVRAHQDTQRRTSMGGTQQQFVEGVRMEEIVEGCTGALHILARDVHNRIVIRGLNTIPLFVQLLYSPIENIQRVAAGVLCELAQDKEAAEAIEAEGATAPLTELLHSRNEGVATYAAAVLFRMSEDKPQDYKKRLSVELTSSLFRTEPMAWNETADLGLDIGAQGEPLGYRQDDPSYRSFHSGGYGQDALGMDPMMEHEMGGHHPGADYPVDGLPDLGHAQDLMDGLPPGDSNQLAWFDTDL
UniProt Q96FW1, residues 47-271: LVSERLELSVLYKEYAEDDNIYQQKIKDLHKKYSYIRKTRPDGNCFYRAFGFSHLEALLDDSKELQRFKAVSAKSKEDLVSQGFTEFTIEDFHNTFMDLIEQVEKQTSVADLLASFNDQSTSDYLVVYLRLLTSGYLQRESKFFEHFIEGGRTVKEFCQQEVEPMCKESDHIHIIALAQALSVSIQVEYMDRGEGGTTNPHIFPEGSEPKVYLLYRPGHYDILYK

Target: β-catenin (human (endogenous in T24 cisplatin-resistance cells)) (UniProt P35222)
Assay: co-IP; cells with OTUB1 or β-catenin domain fragments and point mutants (Fig. 5D-L); RIPA lysate and PMSF, antibody overnight at 4°C, western blot

OTUB1 47-271 domain fragment (C-terminal OTU domain) (from UniProt Q96FW1 47-271) (domain or fragment)
binding: binds
